In article PMC4144766:
Results are given in words; binding and its absence hold for the method and conditions named. Binding can be weak; no strength is given.

Target: TaNPSN11 fragment without the trans-membrane region (yeast two-hybrid bait) (Triticum aestivum (common wheat)) (UniProt J7JVJ9)
Experiment: two-hybrid; Matchmaker yeast two-hybrid system, yeast strain AH109; baits in pGBK7, preys in pGADT7, co-transformed in pairs; tested on SD-Trp-Leu-His and SD-Trp-Leu-His-Ade plates

TaSYP132 fragment without the trans-membrane region (yeast two-hybrid prey) (from UniProt A0ACM8QMH2) (domain or fragment)
binding: binds
